From patent publication US9938240B2, “Fluorinated derivatives of 3-hydroxypyridin-4-ones” (Apotex Technologies Inc., priority 2009, dated 2018)
Some of these results come from one statement about several compounds together. Some ranges recur; such a range may be that of the whole group of compounds.

System: SV-NRA cells
Assay: MPP+ treated SV-NRA cell viability (MTT)
Format: cell-based
Details: 5 mM MPP+ treated SV-NRA cells, 10, 20 and 40 μM, 24 h, vs MPP+ only, p<0.05
Protocol: SV-NRAs cells were plated in a 96-well plate at a density of 10,000 cells/well in 100 μL of DME […], high glucose 1× liquid (Sigma) supplemented with 10% heat-inactivated FBS and 1× antibiotic/antimycotic solution (Sigma). On the next day, the cells were washed with EMEM media (Eagle's minimal essential media; phenol red, serum and glutamine free) and treated for 24 h with 5 mM MPP^+ (1-methyl-4-phenylpyridinium) in EMEM media in the presence or absence of a tested iron chelating compound. All compounds were tested at the following concentrations: 10 μM, 20 μM, and 40 μM. After 24 h of incubation, cell viability was determined with MTT ((3-(4,5-Dimethylthiazol-2-yl)-2,5-diphenyltetrazolium bromide, a yellow tetrazole) assay which measures mitochondrial activity (Carmichael et al. Cancer Research 1987, 47, 936-942). MTT solution (10 μL, 5 mg/mL) was added to the wells and incubated for 2 h. Formazan product was solubilized with 100 μL of 10% SDS (sodium dodecyl sulphate) in 0.01M HCl. Optical density was determined at 570 nm using Multiscan Ascent plate reader (Labsystems) and data collected were corrected for background signal measured at 650 nm. All data are expressed as % of control.
Co-treatment with iron chelators protected the cells from MPP^+ toxicity.

SMILES | increase in cell viability
Cc1c(O)c(=O)ccn1CC(F)(F)F [Apo6995, 3-hydroxy-2-methyl-1-(2,2,2-trifluoroethyl)pyridin-4(1H)-one] | 20-30%
CN(C)C(c1c(O)c(=O)c(Cl)cn1C)C(F)(F)F (centres unmarked) [Apo7060, 5-chloro-2-[1-(dimethylamino)-2,2,2-trifluoroethyl]-3-hydroxy-1-methylpyridin-4(1H)-one] | 20-30%
